In PubChem BioAssay AID1439 (NMMLSC, 2008):
Hit rate of the full screen: of about 220,000 compounds, about 770 (0.35%) were called active. This list was built around the results that the source calls inconclusive (neither active nor inactive); the mix of calls is not that of the screen. Rule as the data show it: active = binding response below about 49% or above about 150%; inconclusive = no clear call, values can overlap the other calls; inactive = in between.

By UniProt entry, the sequences of proteins in these tests, tags left out.
UniProt P09471, whole entry, looked up: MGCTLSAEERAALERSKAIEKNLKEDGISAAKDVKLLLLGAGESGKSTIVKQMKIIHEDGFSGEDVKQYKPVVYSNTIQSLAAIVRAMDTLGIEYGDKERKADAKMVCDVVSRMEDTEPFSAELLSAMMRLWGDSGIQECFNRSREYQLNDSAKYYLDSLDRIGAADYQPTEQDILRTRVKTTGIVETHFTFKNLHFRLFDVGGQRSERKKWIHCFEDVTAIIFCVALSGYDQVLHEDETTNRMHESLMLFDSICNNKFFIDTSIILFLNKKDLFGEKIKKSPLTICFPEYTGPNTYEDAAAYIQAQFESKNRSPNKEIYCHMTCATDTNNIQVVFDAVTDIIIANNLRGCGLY

What follows are compounds tested against Guanine nucleotide-binding protein G(o) subunit alpha (Homo sapiens) (UniProt P09471) (assay: RGS7-Galphao binding modulators, primary screen, biochemical, multiplexed bead flow cytometry (AID 1439;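 also: fluorescent Galphao held in activated GDP-AlF4 state binding bead-coupled RGS7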)). Settings: at 10 µM, actives lie on both sides.

| SMILES | binding response (% of control) |
| --- | --- |
| Cc1cc(NC(=O)CN2CCN(C)CC2)no1 | inconclusive: 114% |
| O=C(CCS(=O)(=O)c1ccc(Cl)cc1)Nc1ccc(N2CCOCC2)cc1 | inconclusive: 117% |
| COC(=O)C1=C(C)OC(N)=C(C#N)C1c1cc(C)sc1C (centres undefined) | inactive: 112% |
| CCCCc1nc(SCCN2CCOCC2)c2c(=O)n(C)c(=O)n(C)c2n1 | inconclusive: 96.9% |
| C(=N\N1CCN(c2ccccn2)CC1)/c1cccc2ccccc12 | inconclusive: 132% |
| COc1ccccc1NS(=O)(=O)c1ccc(O)c(C(=O)OCC(=O)N2c3ccccc3CC2C)c1 (centres undefined) | inconclusive: 97.7% |
| CC(C)(C)C1CCC(=NOC(=O)c2ccc(F)cc2)CC1 (centres undefined) | inactive: 110% |
| O=C(O)c1ccc(Oc2ccccc2)o1 | inconclusive: 126% |
| Cc1cccn2c(=O)c3cc(C#N)c(=NC(=O)c4cccs4)n(CCCOC(C)C)c3nc12 | inconclusive: 124% |
| S=C(Nc1ccc2c(c1)OCCO2)Nc1ccc2c(c1)OCO2 | inactive: 92.7% |
| O=C(CCc1nc2ccccc2c(=O)[nH]1)NCc1ccco1 | inconclusive: 90.4% |
| O=[N+]([O-])c1ccc(-c2cnc[nH]2)cc1 | inconclusive: 91.1% |
| O=[N+]([O-])c1cc(C(F)(F)F)ccc1NC1CCN(Cc2ccccc2)CC1 | inconclusive: 130% |
| CCOC(=O)C1CCN(C(=O)c2sccc2Cl)CC1 | inconclusive: 100% |
| CC(=O)Nc1ccc(S(=O)(=O)Nc2cccc(NC(=O)c3ccco3)c2)cc1 | inconclusive: 101% |
| COc1ccc(S(=O)(=O)N2CCCCCC2)cc1C(=O)OC(C)C(N)=O (centres undefined) | inconclusive: 119% |
| C=CCN1CCc2c(cc(O)c(O)c2Cl)C(c2ccccc2)C1 (centres undefined) | inconclusive: 87.7% |
| O=[N+]([O-])c1ccc(/C=C/C2=NN(c3ccccc3)C(c3ccco3)C2)o1 (centres undefined) | inconclusive: 114% |
| O=C(NNC1=NCCCCC1)Nc1cccc(Cl)c1 | inconclusive: 103% |
| COc1ccccc1N(C)S(=O)(=O)c1ccc(C(=O)OCC(=O)NCc2cccs2)cc1 | inconclusive: 107% |

| SMILES | binding response (% of control) |
| --- | --- |
| COc1cccc(/C=N/NC(=O)c2ccc(=O)n(C)c2)c1OC | inactive: 105% |
| Cc1nc(C(F)(F)F)ccc1C(=O)Nc1ccccc1F | inconclusive: 692% |
| O=C1CCN(C(=S)NCCc2ccccc2)CC1 | inconclusive: 100% |
| CCN(CCCNC(=O)CCc1nc(-c2ccc(C)cc2)no1)c1cccc(C)c1 | inactive: 96% |
| COc1ccc(Cl)cc1NC(=O)/C=C/C(=O)O | inconclusive: 85.4% |
| CN(C)CCOC(=O)C12CC3CC(C1)CC(C(=O)OCCN(C)C)(C3)C2 | inconclusive: 72.5% |
| CCOC(=O)N1CCC(NS(=O)(=O)c2ccc(C#N)cc2)CC1 | inconclusive: 85.1% |
| CCC(NC(=O)NNC(N)=S)(C(F)(F)F)C(F)(F)F | inconclusive: 128% |
| CCSc1nc2c(cnn2-c2ccccc2)c(=O)n1N | inconclusive: 127% |
| O=C(NNc1c(Cl)cccc1Cl)c1cccs1 | inconclusive: 130% |
| CCC(C)n1c(SCC(=O)Nc2cc(C(C)(C)C)nn2-c2ccccc2)nc2ccccc2c1=O (centres undefined) | inactive: 102% |
| Cc1ccc(S(=O)(=O)N(C)C)cc1NC(=O)C1CCC1 | inconclusive: 183% |
| O=C(Nc1ccc(Cl)cc1Cl)c1csc(-c2cccnc2)n1 | inconclusive: 78.2% |
| CC(=O)n1nc(-c2ccccc2)nc1NCc1ccc(N(C)C)cc1 | inconclusive: 99.1% |
| CCC(=O)N1CCN(c2ccc(NC(=O)c3ccc4c(c3)OCCO4)cc2)CC1 | inactive: 93.6% |
| CCOC(=O)C(=Cc1ccc(Br)cc1)C(=O)OCC | inconclusive: 193% |
| CCCN(CCC)C(=O)Nc1ccc(F)cc1F | inconclusive: 109% |
| Cc1ccc(-c2nnc(Oc3ccc(NC(=O)c4ccccc4)cc3)c3ccccc23)cc1 | inactive: 102% |
| Cc1c(Cc2ccccc2)c(=O)oc2c(O)c(O)ccc12 | inconclusive: 92.2% |
| CC(C)(C)OC(=O)N/N=C\c1ccc([N+](=O)[O-])s1 | inactive: 104% |

Filtered by structure, the compounds so far with a cyano group.

| SMILES | binding response (% of control) |
| --- | --- |
| COC(=O)C1=C(C)OC(N)=C(C#N)C1c1cc(C)sc1C (centres undefined) | inactive: 112% |
| Cc1cccn2c(=O)c3cc(C#N)c(=NC(=O)c4cccs4)n(CCCOC(C)C)c3nc12 | inconclusive: 124% |
| CCOC(=O)N1CCC(NS(=O)(=O)c2ccc(C#N)cc2)CC1 | inconclusive: 85.1% |

(continued)

| SMILES | binding response (% of control) |
| --- | --- |
| O=C(CSc1n[nH]c(=O)[nH]c1=O)Nc1ccc(C(=O)O)cc1 | inconclusive: 112% |
| Cc1cc(Cl)ccc1NNC(=O)c1c(C)noc1C | inconclusive: 81.2% |
| Cc1ccccc1CN1CCN(S(=O)(=O)c2cccs2)CC1 | inactive: 96.8% |
| N#CC1C=Cc2ccccc2N1C(=O)c1ccccc1 (centres undefined) | inconclusive: 96.5% |
| O=C(O)CC1(CC(=O)Nc2ccc3c(c2)OCCCO3)CCCCC1 | inconclusive: 142% |
| O=C(O)c1ccccc1SC1CC(=O)N(c2ccc3c(c2)OCO3)C1=O (centres undefined) | inconclusive: 97.1% |
| CC(OC(=O)c1ccc(Cl)c(S(=O)(=O)Nc2ccc(F)cc2)c1)C(=O)NC(N)=O (centres undefined) | inconclusive: 66.3% |
| CC(C(=O)c1c[nH]c(C(N)=O)c1)c1ncc(C(F)(F)F)cc1Cl (centres undefined) | inactive: 51.5% |
| Cc1ccc(-c2cc(C(=O)OCC(=O)N(C)C3CCS(=O)(=O)C3)c3ccccc3n2)o1 (centres undefined) | inconclusive: 99.6% |
| CC1CC(C)(C)NC(=S)N1CCC(=O)NCc1ccc(F)cc1 (centres undefined) | inconclusive: 104% |
| CCCCOC(=O)C1=C(N)N2C(=O)C(C)SC2=C(C(=O)OCC)C1c1ccc(O)c(OC)c1 (centres undefined) | inconclusive: 83.4% |
| CCOc1ccc(C2C(C(C)=O)=C(O)C(=O)N2CCc2c[nH]c3ccccc23)cc1 (centres undefined) | inactive: 100% |
| CCOCCc1c(O)nc(SC)[nH]c1=O | inconclusive: 187% |
| CC(C)(C)c1ccc(NC(=O)N2CCCN(c3c(Cl)cncc3Cl)CC2)cc1 | inconclusive: 132% |
| CC(C)C(c1nnnn1Cc1ccc(F)cc1)N1CCN(c2ccc(O)cc2)CC1 (centres undefined) | inactive: 102% |
| Cc1cc(NC(=O)c2c(F)cccc2Cl)no1 | inconclusive: 97.1% |
| O=C(Cn1nc(-c2ccc3c(c2)OCCO3)ccc1=O)Nc1ccc(-n2cnnn2)cc1 | inconclusive: 77.6% |
| O=C(Cc1ccc([N+](=O)[O-])cc1)NCc1ccncc1 | inconclusive: 103% |
| CCCNC(=O)CSc1nccn1Cc1ccco1 | inconclusive: 133% |
